Experimental data taken from PubChem BioAssay (EPA / NIEHS).
For some assays here: This list holds what a sample rich in hits left over. Results filed as inconclusive are left out. The list shows a part of the results, in another mix than the full data. Activity calls are given as the source filed them. Rule for the calls, unless noted: active = hit-call score of the fitted dose curve at least 0.9, where 1 is the maximum; inactive = score below 0.9.

Protein sequences, listed by entry. Tags and fused reporters are not part of them. Lines headed by an entry give the natural chain unless they say otherwise; changes in a name come on top.
UniProt P16581: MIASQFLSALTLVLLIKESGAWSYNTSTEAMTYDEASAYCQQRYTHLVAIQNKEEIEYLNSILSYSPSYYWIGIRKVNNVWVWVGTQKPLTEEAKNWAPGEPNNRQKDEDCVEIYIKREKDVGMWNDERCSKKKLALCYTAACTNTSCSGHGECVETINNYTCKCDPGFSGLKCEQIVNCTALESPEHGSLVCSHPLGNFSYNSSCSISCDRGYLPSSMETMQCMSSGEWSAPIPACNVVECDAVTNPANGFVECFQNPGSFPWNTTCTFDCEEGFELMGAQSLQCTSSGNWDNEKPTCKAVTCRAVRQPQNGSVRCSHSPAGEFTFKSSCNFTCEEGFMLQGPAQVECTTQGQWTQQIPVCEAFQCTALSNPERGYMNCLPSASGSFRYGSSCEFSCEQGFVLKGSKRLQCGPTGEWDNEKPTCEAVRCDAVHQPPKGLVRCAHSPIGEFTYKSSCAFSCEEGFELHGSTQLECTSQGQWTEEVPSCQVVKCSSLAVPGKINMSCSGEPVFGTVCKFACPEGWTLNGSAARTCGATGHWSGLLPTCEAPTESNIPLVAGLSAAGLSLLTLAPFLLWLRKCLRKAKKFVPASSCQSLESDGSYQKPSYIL
UniProt P31751: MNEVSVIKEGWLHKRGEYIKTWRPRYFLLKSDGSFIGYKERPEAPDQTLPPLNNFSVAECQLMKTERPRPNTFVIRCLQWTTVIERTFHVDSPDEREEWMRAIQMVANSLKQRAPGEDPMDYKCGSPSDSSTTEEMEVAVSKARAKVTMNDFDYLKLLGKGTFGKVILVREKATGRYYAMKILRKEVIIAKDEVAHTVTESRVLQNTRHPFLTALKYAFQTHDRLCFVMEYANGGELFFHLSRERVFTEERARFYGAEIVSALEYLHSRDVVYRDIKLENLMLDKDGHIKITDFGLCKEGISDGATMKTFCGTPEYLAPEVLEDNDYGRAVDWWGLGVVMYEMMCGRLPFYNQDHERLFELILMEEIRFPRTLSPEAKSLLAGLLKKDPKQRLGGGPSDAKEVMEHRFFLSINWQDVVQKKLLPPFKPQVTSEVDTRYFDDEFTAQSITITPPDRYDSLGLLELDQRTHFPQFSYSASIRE
UniProt P11712, whole entry, looked up: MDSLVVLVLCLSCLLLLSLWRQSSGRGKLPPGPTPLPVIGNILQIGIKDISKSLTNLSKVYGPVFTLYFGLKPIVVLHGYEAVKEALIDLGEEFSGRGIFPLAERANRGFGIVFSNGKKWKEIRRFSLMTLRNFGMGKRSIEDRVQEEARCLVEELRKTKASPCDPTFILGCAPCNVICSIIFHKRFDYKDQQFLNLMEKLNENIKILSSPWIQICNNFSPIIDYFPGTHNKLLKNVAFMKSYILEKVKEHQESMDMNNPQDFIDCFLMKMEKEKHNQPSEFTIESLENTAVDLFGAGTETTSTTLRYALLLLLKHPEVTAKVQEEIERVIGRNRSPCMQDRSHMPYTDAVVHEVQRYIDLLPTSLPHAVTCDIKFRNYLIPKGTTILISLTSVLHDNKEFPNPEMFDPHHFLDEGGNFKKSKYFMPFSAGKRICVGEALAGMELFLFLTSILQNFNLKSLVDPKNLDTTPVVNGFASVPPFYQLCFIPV
UniProt Q9PVE4: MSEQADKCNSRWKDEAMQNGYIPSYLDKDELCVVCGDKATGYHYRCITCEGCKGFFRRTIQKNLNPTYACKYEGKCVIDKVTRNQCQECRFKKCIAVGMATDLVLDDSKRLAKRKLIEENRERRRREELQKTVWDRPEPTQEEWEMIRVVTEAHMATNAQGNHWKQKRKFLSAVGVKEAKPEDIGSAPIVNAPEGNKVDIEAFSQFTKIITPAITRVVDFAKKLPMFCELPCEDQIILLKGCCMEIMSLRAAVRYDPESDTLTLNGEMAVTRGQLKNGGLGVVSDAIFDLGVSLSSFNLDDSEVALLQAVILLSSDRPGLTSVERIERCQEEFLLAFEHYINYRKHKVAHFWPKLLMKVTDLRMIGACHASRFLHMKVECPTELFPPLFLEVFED

Assays:
[1] = read-out: CD40, CD40 (gene 958); assay: BSK_LPS_CD40: BioMAP Diversity Plus: LPS Assay for CD40 Biomarker Activity (AID 2283076); settings: actives raise or lower the signal; primary human HUVEC with PBMC
Summary of the method: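 HUVEC plus PBMC co-culture stimulated with LPS; CD40 quantified by ELISA 24 h after compound dosing. Fitting was bidirectional relative to DMSO. SRB staining of parallel cultures flagged overt cytotoxicity.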

[2] = CEETOX_H295R_CORTIC: CeeTox H295R High-throughput Steroidogenesis Assay for Corticosterone (CORTIC) (AID 2283437); settings: actives raise or lower the signal;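 note: human H295R adrenal cells prestimulated with forskolin before chemical exposure; corticosterone secreted into medium quantified by mass spectrometry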
Summary of the method: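 H295R cells were prestimulated 48 h with 10 uM forskolin, then exposed 48 h to test chemical in 0.1% DMSO. Medium corticosterone was MTBE-extracted and quantified by HPLC-MS/MS; bidirectional fit versus DMSO baseline.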

[3] = CCTE_Shafer_MEA_acute_cross_correlation_area: CCTE's Neural Acute Assay for Area of Cross Correlation, Shafer Lab (AID 2284024);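 note: curves fitted for loss of cross-correlation area so actives lower synchrony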
Summary of the method: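 Rat primary cortical neurons on 48-well MEA, DIV 13 or 15; compounds 0.03-40 uM. Baseline and post-exposure 40 min recordings at 37 C; percent change in area under pooled inter-electrode cross-correlation near zero lag, relative to DMSO.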

[4] = read-out: E-selectin (Homo sapiens) (UniProt P16581); assay: BSK_SAg_Eselectin: BioMAP Diversity Plus: SAg Assay for Eselectin Biomarker Activity (AID 2283091); settings: actives raise or lower the signal; primary human HUVEC with PBMC
Summary of the method: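 Human umbilical vein endothelial cells co-cultured with peripheral blood mononuclear cells, SAg system. E-selectin is measured by ELISA 24 h after dosing and fitted bidirectionally against DMSO. Cytotoxicity is checked by SRB staining of parallel cultures.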

[5] = CCTE_Shafer_MEA_acute_interburst_interval_mean: CCTE's Neural Acute Assay for Mean Interburst Interval, Shafer Lab (AID 2284016);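 note: percent change of mean interburst interval versus each well's own pre-dose baseline; curves fitted for decrease in interburst interval relative to DMSO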
Summary of the method: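 Percent change in mean single-electrode interburst interval was calculated per well from 40 min recordings before and after compound (0.03-40 uM). Recordings were made at 37 C on rat cortical cultures at DIV 13 or 15, with spikes detected at 8x rms threshold.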

[6] = read-out: urokinase plasminogen activator (uPA), PLAU (gene 5328); assay: BSK_KF3CT_uPA: BioMAP Diversity Plus: KF3CT Assay for urokinase plasminogen activator (uPA) Biomarker Activity (AID 2283075); settings: actives raise or lower the signal; primary human keratinocytes with fibroblasts
Summary of the method: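 Human keratinocyte plus foreskin fibroblast primary co-culture exposed to chemical for 24 h. uPA levels were quantified by ELISA, and activity was fitted bidirectionally against a DMSO negative-control baseline.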

[7] = read-out: CD40, CD40 (gene 958); assay: BSK_SAg_CD40: BioMAP Diversity Plus: SAg Assay for CD40 Biomarker Activity (AID 2283088); settings: actives raise or lower the signal; primary human HUVEC with PBMC
Summary of the method: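 HUVEC plus PBMC co-culture, superantigen-activated, with CD40 read by ELISA 24 h after dosing. Curves fitted in both directions against DMSO. Overt cytotoxicity checked by parallel SRB total-protein staining.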

[8] = read-out: Interleukin-1 alpha (IL1a), IL1A (gene 3552); assay: BSK_LPS_IL1a: BioMAP Diversity Plus: LPS Assay for Interleukin-1 alpha (IL1a) Biomarker Activity (AID 2283080); settings: actives raise or lower the signal; primary human HUVEC with PBMC
Summary of the method: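 Human umbilical vein endothelial cells co-cultured with PBMC and stimulated with LPS; IL-1a measured by ELISA 24 h after dosing. Bidirectional fitting against DMSO; cytotoxicity checked by SRB staining in parallel cultures.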

[9] = BSK_BT_Bcell_Proliferation: Viability Assessment in the BioMAP Diversity Plus: BT Assay for B cell Proliferation (AID 2284227); settings: primary human B cells with PBMC
Summary of the method: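 Human B cell/PBMC co-culture; test chemical added; 72 h; TCA fix (10%), 0.1% SRB stain, A560 for total protein as a proliferation read-out; positive-direction fit vs DMSO baseline.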

[10] = biological target: human AKT serine/threonine Kinase 2 (AKT2), AKT2 (gene 208) (UniProt P31751); assay: NVS_ENZ_hAKT2: NovaScreen (NVS) Enzymatic Assay for human AKT serine/threonine Kinase 2 (AKT2) (AID 2283141; active = hit-call score of the fitted dose curve at least 0.9, where 1 is the maximum)
Summary of the method: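 Cell-free fluorescence/electrophoretic mobility shift readout of recombinant human AKT2 activity, 1 h after chemical dosing. Duplicate primary screen at 25 uM, then singleton concentration-response up to 50 uM; loss of signal versus DMSO baseline.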

[11] = read-out: Transforming growth factor beta 1 (TGFb1), TGFB1 (gene 7040); assay: BSK_KF3CT_TGFb1: BioMAP Diversity Plus: KF3CT Assay for Transforming growth factor beta 1 (TGFb1) Biomarker Activity (AID 2283072); settings: actives raise or lower the signal; primary human keratinocytes with fibroblasts
Summary of the method: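 Signal changes in either direction, relative to DMSO, define activity here. TGF-b1 is read by ELISA from a human keratinocyte-fibroblast co-culture 24 h post-dose.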

[12] = read-out: CD69, CD69 (gene 969); assay: BSK_SAg_CD69: BioMAP Diversity Plus: SAg Assay for CD69 Biomarker Activity (AID 2283089); settings: actives raise or lower the signal; primary human HUVEC with PBMC
Summary of the method: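 ELISA, fluorescence read-out: CD69 on human umbilical vein endothelial cell + PBMC co-culture, 24 h post-dosing. Gain or loss of signal fitted bidirectionally against DMSO baseline.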

[13] = read-out: E-selectin (Homo sapiens) (UniProt P16581); assay: BSK_LPS_Eselectin: BioMAP Diversity Plus: LPS Assay for Eselectin Biomarker Activity (AID 2283077); settings: actives raise or lower the signal; primary human HUVEC with PBMC
Summary of the method: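 Human umbilical vein endothelial cells co-cultured with PBMC under LPS stimulation; cell-surface E-selectin measured by ELISA 24 h after dosing. Change in either direction versus DMSO, with SRB total-protein staining in parallel cultures for cytotoxicity.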

[14] = biological target: human CYP2C9, CYP2C9 (gene 1559) (UniProt P11712); assay: NVS_ADME_hCYP2C9: NovaScreen (NVS) CYP450-related Enzyme Activity (ADME) Assay for human CYP2C9 (AID 2283108; active = hit-call score of the fitted dose curve at least 0.9, where 1 is the maximum)
Summary of the method: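 Cell-free assay of recombinant human CYP2C9 produced in Sf9 cells, with enzyme activity read by fluorescence intensity 0.75 h after compound addition. Loss of signal versus an acetonitrile negative control indicates inhibition. Primary screen used 10 uM in duplicate; actives were retested in concentration series.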

[15] = read-out: catalase (CAT), CAT (gene 847); assay: LTEA_HepaRG_CAT: Life Technologies and Expression Analysis (LTEA) Assay for catalase (CAT) using HepaRG (AID 2283452); settings: actives raise or lower the signal; mRNA level, 48 h;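 note: TaqMan qRT-PCR signal normalized to ACTB GAPDH and POLR2A housekeeping genes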
Summary of the method: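 Differentiated HepaRG cells in serum-free induction medium were dosed 48 h in duplicate, eight half-log concentrations from 100 uM in 0.5% DMSO. Transcript measured by TaqMan qRT-PCR, normalised to ACTB/GAPDH/POLR2A, fitted bidirectionally against DMSO.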

[16] = Tanguay_ZF_120hpf_SNOU_legacy: (Legacy) Oregon State University Tanguay Lab 120 Hour Post-fertilization zebrafish Assay for Snout Malformation (AID 2283637; active = hit-call score of the fitted dose curve at least 0.9, where 1 is the maximum)
Summary of the method: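 Tropical 5D wild-type zebrafish embryos, dechorionated with pronase at 4 hpf, were exposed singly from 6 hpf to 120 hpf statically at 28C in 0.64% DMSO. Snout malformation was scored present/absent by brightfield microscopy, fitted against DMSO.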

[17] = ATG_M_06_XSP2: Attagene TRANS-FACTORIAL Multi-Species (XSP2) HepG2 Assay for M06 Transcription Factor (Internal Marker) (AID 2283811; active = hit-call score of the fitted dose curve at least 0.9, where 1 is the maximum;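 note: internal background marker reporter mRNA measured by RT-PCR and capillary electrophoresis; hits are increases in signal above the DMSO baseline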)
Summary of the method: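 HepG2 cells transiently transfected with GAL4-UAS multi-reporter constructs, dosed 24 h with 3 nM 6-alpha-fluorotestosterone plus 1.5 nM norgestrel present to stimulate androgen receptor. Reporter mRNA quantified by RT-PCR, 6-FAM labelling, HpaI digestion and capillary electrophoresis; gain-of-signal fitted versus DMSO baseline.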

[18] = ATG_M_61_XSP2: Attagene TRANS-FACTORIAL Multi-Species (XSP2) HepG2 Assay for M61 Transcription Factor (Internal Marker) (AID 2283835);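 note: reporter mRNA of an internal background marker read by RT-PCR and capillary electrophoresis; active means a rise in signal above the DMSO baseline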
Summary of the method: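 HepG2 cells transiently transfected with multiple GAL4-UAS reporter units; 3 nM 6-alpha-fluorotestosterone and 1.5 nM norgestrel present to stimulate androgen receptor. After 24 h compound exposure, reporter mRNA measured by RT-PCR and capillary electrophoresis fluorescence, gain-of-signal versus DMSO baseline.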

[19] = biological target: zebrafish Thyroid Hormone Receptor beta (TRb), thrb (gene 30607) (UniProt Q9PVE4); assay: ATG_zfTRb_XSP2: Attagene TRANS-FACTORIAL Multi-Species (XSP1) HepG2 Assay for zebrafish Thyroid Hormone Receptor beta (TRb) (AID 2283836; active = hit-call score of the fitted dose curve at least 0.9, where 1 is the maximum)
Summary of the method: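 Fluorescence of labelled reporter cDNA fragments, separated by capillary electrophoresis, gives mRNA induction from exogenous NR-Gal4 chimeras in transiently transfected HepG2 cells after 24 h dosing; 3 nM 6-alpha-fluorotestosterone and 1.5 nM norgestrel included in the run.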

[20] = read-out: Interleukin-8 (IL8), CXCL8 (gene 3576); assay: BSK_SAg_IL8: BioMAP Diversity Plus: SAg Assay for Interleukin-8 (IL8) Biomarker Activity (AID 2283094); settings: actives raise or lower the signal; primary human HUVEC with PBMC
Summary of the method: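 In this co-culture of human umbilical vein endothelium with peripheral blood mononuclear cells, IL-8 is assayed by ELISA at 24 h. DMSO serves as baseline for bidirectional curve fitting.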

[21] = read-out: Lipase C (LIPC), LIPC (gene 3990); assay: LTEA_HepaRG_LIPC: Life Technologies and Expression Analysis (LTEA) Assay for Lipase C (LIPC) using HepaRG (AID 2283514); settings: actives raise or lower the signal; mRNA level, 48 h
Summary of the method: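 Differentiated human HepaRG cells in serum-free induction medium were exposed in duplicate for 48 h to eight concentrations (top 100 uM, half-log steps, 0.5% DMSO). LIPC mRNA was quantified by TaqMan qRT-PCR, normalized to ACTB, GAPDH and POLR2A, with bidirectional fitting versus DMSO.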

CCCCCCCCOC(=O)c1cc(O)c(O)c(O)c1
AC50 [1]: active: 7.41 µM
AC50 [2]: active: 5 µM
outcome [3]: inactive

CC(=O)Nc1ccc(O)cc1
outcome [4]: inactive
outcome [5]: inactive

NC(N)=O
outcome [6]: inactive

O=C(Oc1ccccc1)c1ccccc1C(=O)Oc1ccccc1
outcome [7]: inactive

O=C(O)C[C@H](O)C[C@H](O)/C=C/c1c(C2CC2)nc2ccccc2c1-c1ccc(F)cc1
AC50 [8]: active: 0.212 µM
AC50 [9]: active: 1.18 µM

CCOC(=O)C(C)(C)Oc1ccc(Cl)cc1
outcome [10]: inactive

Oc1cccc(O)c1
outcome [11]: inactive

CCCCOC(=O)CCCCCCCC(=O)OCCCC
outcome [12]: inactive

Cc1nn(C)c(Oc2ccccc2)c1C=NOCc1ccc(C(=O)OC(C)(C)C)cc1
AC50 [1]: active: 8.81 µM

CC(=O)OCCC(C)CC(C)(C)C (stereo not drawn)
outcome [13]: inactive

CC1(C)NC(=O)N(c2ccc([N+](=O)[O-])c(C(F)(F)F)c2)C1=O
outcome [1]: inactive
AC50 [14]: active: 14.4 µM
AC50 [15]: active: 80.6 µM
outcome [16]: inactive
outcome [17]: inactive
outcome [18]: inactive
outcome [19]: inactive

COc1cc(C(C)C)c2c(c1)S(=O)(=O)N(COc1cc(=O)n3cccc(OCCN4CCCCC4)c3n1)C2=O
outcome [20]: inactive
AC50 [21]: active: 19.6 µM
